# Experimental data: PubChem BioAssay AID743121 (NCATS, 2013)
# Test: 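Knock-downs that sensitise breast cancer cells to camptothecin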 (primary screen)
# System: MDA-MB-231 cells, a human breast cancer line
# Knock-down reagent: single siRNA against human genes, 20 nM siRNA (0.8 pmol per well)
# Time to read-out: 120 h (drug added 48 h after transfection, read 72 h later)
# Conditions: camptothecin 20 nM (about EC30) for 72 h; vehicle 0.1% DMSO in parallel plates
# Detection: 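Cell viability by ATP luminescence (CellTiter-Glo) as % of non-targeting siRNA wells, and the log2 ratio of viability without drug over viability with camptothecin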
# Scale: log2 vehicle/camptothecin viability: higher = stronger sensitisation to camptothecin; viability with camptothecin and viability without drug: higher = more viable cells
# Call rule: 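Active genes have an RSA gene-level p-value below 0.001, computed from the ratios of their separate siRNAs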
# Shown is one part, drawn at random, of about 26,000 deposited reagents. 167 of all reagents (0.63%) were called active. 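Calls are per gene from RSA p-values that are not deposited; an individual active-marked siRNA can sensitise only weakly.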 The numbers tell different reagents against one gene apart. Reagent sequences are not shown.
gene,reagent no.,log2 vehicle/camptothecin viability,viability with camptothecin (% of control),viability without drug (% of control),outcome
GPR34 (G protein-coupled receptor 34),1,-0.0239,61.4,60.4,inactive
GPR34 (G protein-coupled receptor 34),2,0.371,62.6,80.9,inactive
GPR34 (G protein-coupled receptor 34),3,0.0281,105,107,inactive
GPR34 (G protein-coupled receptor 34),4,0.634,36.7,56.9,inactive
PBRM1 (polybromo 1),1,0.00719,106,107,inactive
PBRM1 (polybromo 1),2,-0.26,129,108,inactive
PBRM1 (polybromo 1),3,-0.309,118,95.1,inactive
PBRM1 (polybromo 1),4,0.0813,71.9,76.1,inactive
CLCA4 (chloride channel accessory 4),1,-0.301,86.3,70,inactive
CLCA4 (chloride channel accessory 4),2,-0.347,122,96,inactive
CLCA4 (chloride channel accessory 4),3,0.0289,62.3,63.6,inactive
CLCA4 (chloride channel accessory 4),4,-0.206,82,71,inactive
ENPP2 (ectonucleotide pyrophosphatase/phosphodiesterase 2),1,0.028,77.1,78.6,inactive
ENPP2 (ectonucleotide pyrophosphatase/phosphodiesterase 2),2,0.363,77.6,99.8,inactive
ENPP2 (ectonucleotide pyrophosphatase/phosphodiesterase 2),3,-0.358,108,83.9,inactive
ENPP2 (ectonucleotide pyrophosphatase/phosphodiesterase 2),4,-0.114,88.7,82,inactive
SLITRK6 (SLIT and NTRK like family member 6),1,-0.158,97.2,87.2,inactive
SLITRK6 (SLIT and NTRK like family member 6),2,-0.219,69.1,59.4,inactive
SLITRK6 (SLIT and NTRK like family member 6),3,-0.0915,57,53.5,inactive
SLITRK6 (SLIT and NTRK like family member 6),4,0.0473,99,102,inactive
ADAMTS12 (ADAM metallopeptidase with thrombospondin type 1 motif 12),1,-0.651,107,68.4,inactive
ADAMTS12 (ADAM metallopeptidase with thrombospondin type 1 motif 12),2,0.431,6.91,9.31,inactive
ADAMTS12 (ADAM metallopeptidase with thrombospondin type 1 motif 12),3,0.234,21.7,25.6,inactive
ADAMTS12 (ADAM metallopeptidase with thrombospondin type 1 motif 12),4,-0.0316,97.6,95.5,inactive
GUCA1B (guanylate cyclase activator 1B),1,-0.634,115,74.4,inactive
GUCA1B (guanylate cyclase activator 1B),2,-0.105,104,96.5,inactive
GUCA1B (guanylate cyclase activator 1B),3,0.499,58.3,82.3,inactive
CTSE (cathepsin E),1,0.0728,66.1,69.5,inactive
CTSE (cathepsin E),2,-0.029,65.7,64.4,inactive
CTSE (cathepsin E),3,-0.407,52.4,39.5,inactive
CTSE (cathepsin E),4,-0.307,103,83.1,inactive
OR7D4 (olfactory receptor family 7 subfamily D member 4),1,-0.495,84.6,60,inactive
OR7D4 (olfactory receptor family 7 subfamily D member 4),2,-0.581,78.7,52.6,inactive
OR7D4 (olfactory receptor family 7 subfamily D member 4),3,-0.415,59.2,44.4,inactive
OR7D4 (olfactory receptor family 7 subfamily D member 4),4,-0.0732,23.1,21.9,inactive
MEP1A (meprin A subunit alpha),1,-0.0797,99.4,94.1,inactive
MEP1A (meprin A subunit alpha),2,-0.0168,78.6,77.7,inactive
MEP1A (meprin A subunit alpha),3,0.0235,105,107,inactive
MEP1A (meprin A subunit alpha),4,-0.174,99.9,88.5,inactive
HECTD3 (HECT domain E3 ubiquitin protein ligase 3),1,-0.191,74.3,65.1,inactive
HECTD3 (HECT domain E3 ubiquitin protein ligase 3),2,-0.195,94.7,82.7,inactive
HECTD3 (HECT domain E3 ubiquitin protein ligase 3),3,-0.165,71.7,63.9,inactive
PRKY (protein kinase Y-linked (pseudogene)),1,-0.658,81.9,51.9,inactive
PRKY (protein kinase Y-linked (pseudogene)),2,-0.133,49.7,45.4,inactive
PRKY (protein kinase Y-linked (pseudogene)),3,-0.183,91.4,80.5,inactive
PRKY (protein kinase Y-linked (pseudogene)),4,-0.298,101,82.3,inactive
